# Primary screen of a compound library

The chains behind the UniProt entries cited, without tags or fusion partners. Residues count along the entry.
UniProt P9WNZ1, whole entry: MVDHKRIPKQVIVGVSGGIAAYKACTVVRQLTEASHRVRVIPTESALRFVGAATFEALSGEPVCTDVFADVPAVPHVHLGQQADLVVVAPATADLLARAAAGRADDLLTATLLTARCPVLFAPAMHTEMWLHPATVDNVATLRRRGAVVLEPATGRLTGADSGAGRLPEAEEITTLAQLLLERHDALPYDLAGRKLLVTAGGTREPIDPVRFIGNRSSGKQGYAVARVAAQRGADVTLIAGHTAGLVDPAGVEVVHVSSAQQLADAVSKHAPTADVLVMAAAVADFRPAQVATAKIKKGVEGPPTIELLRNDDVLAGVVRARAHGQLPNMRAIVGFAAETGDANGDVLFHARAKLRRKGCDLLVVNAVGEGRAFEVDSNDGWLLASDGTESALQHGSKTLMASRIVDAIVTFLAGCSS
UniProt P9WFT3, whole entry: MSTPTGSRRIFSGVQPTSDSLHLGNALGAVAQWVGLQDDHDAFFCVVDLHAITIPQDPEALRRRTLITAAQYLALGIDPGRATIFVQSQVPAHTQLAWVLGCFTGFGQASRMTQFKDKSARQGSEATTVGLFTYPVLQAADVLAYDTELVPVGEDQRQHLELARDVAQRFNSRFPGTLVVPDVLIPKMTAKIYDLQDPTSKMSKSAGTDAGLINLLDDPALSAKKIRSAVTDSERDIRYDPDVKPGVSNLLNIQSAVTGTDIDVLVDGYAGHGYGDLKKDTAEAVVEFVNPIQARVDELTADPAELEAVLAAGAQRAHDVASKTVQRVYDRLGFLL
UniProt A4I591, 1-473: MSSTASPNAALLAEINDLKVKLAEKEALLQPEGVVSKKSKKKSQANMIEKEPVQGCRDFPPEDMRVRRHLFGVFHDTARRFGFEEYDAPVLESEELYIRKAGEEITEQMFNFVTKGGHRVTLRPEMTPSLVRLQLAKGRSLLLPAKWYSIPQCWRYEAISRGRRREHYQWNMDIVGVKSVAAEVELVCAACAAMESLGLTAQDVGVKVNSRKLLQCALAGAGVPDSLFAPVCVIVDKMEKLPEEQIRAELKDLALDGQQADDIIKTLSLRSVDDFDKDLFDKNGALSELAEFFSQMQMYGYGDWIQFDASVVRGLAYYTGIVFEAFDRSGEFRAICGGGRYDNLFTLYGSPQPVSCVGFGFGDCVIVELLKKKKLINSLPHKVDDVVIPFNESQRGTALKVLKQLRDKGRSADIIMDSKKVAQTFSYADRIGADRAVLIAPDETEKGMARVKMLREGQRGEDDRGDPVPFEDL

CoaBC: 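Coenzyme A biosynthesis protein CoaBC, Mycobacterium tuberculosis (UniProt P9WNZ1). Enzyme assay of CoaBC with a phosphate dye (Biomol Green) read at 650 nm. Tested at 30 µM. Higher reads as stronger inhibition, judged from the few compounds that gave an IC50. Most strong results did not repeat in a second test. About 67,000 compounds were tested under these conditions; 0.06% (about 40) showed 50% or more at least once.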
Toxoplasma: 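Assay of Toxoplasma gondii numbers, read through their beta-galactosidase reporter with a colour substrate. Tested at 10 µM. Higher reads as fewer parasites (inferred from which compounds were picked for retests). About 67,000 compounds were tested under these conditions; 0.38% (about 260) showed 50% or more at least once.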
Leishmania in macrophages: 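Cell assay of Leishmania donovani living inside macrophages; the read-out is not stated. Concentration: 30 µM. Direction is inferred from retests: higher values go with stronger inhibition. Size under these conditions: about 69,000 compounds, about 1,000 of them at 50% or above in at least one test.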
MtTrpRS: 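Enzyme assay of tryptophanyl-tRNA synthetase; the read-out is not stated. Target: Tryptophan-tRNA ligase, Mycobacterium tuberculosis (UniProt P9WFT3). Compounds at 10 µM. Direction is not recorded; retested compounds ran higher, which suggests that high means inhibition. About 65,000 compounds were tested under these conditions; 0.098% (about 64) showed 50% or more at least once.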
LiHisRS: 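Enzyme assay of histidyl-tRNA synthetase; the read-out is not stated. Target: Histidine-tRNA ligase, Leishmania infantum (UniProt A4I591). Tested at 30 µM. Higher reads as stronger inhibition (inferred: compounds with an IC50 in retests scored well above the rest). The assay is labelled LdHisRS but filed under L. infantum. Size under these conditions: about 69,000 compounds, about 410 of them at 50% or above in at least one test.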

Values are the deposited “Percent Effect”, in %. The record does not define 0% and 100%; most values in the screen are far below 50% and negative numbers occur (in some assays of this library far below -100). This is an unselected part of the compounds tested. Two or more numbers in one place are separate tests of the same structure; such repeats can differ widely. A dash means the value is not listed here; it may have been measured.

Result for CC(C)COC(=O)N1CCC2(CCNC2)C1.Cl (stereo not drawn) was Toxoplasma: -26.6%; Leishmania in macrophages: -9.205%. Result for CCc1noc(C(C)N2CCN(CCc3ccncc3)CC2)n1 (stereo not drawn) was CoaBC: 0.638%; Toxoplasma: 2.935%; Leishmania in macrophages: -3.023%; MtTrpRS: -7.67%; LiHisRS: 5%. c1ccc(O[C@H]2CC[C@H]3[C@H]2OCCN3Cc2nccs2)nc1 gave CoaBC: 10.91%; MtTrpRS: -0.08285%; LiHisRS: 14.15%. Result for O=C(O)C(F)(F)F.O=C(O)C(F)(F)F.[H][C@]12CO[C@H](CN(C)C)[C@@]1([H])CCN(C(=O)NCc1cccnc1)C2 was Toxoplasma: -2.989%; Leishmania in macrophages: 5.228%. CCn1nnc2c1C(COCC(=O)N(C)C)CN(Cc1ccco1)C2 (stereo not drawn) read CoaBC: 0.4878%; LiHisRS: 50.94%. For [H][C@]12CC[C@]([H])(CN(C(=O)c3cc(Cl)c[nH]c3=O)C1)N(Cc1ccccc1)C2 the result was Toxoplasma: 2.727%; Leishmania in macrophages: 43.09%. Cc1ncc2c(n1)CN(Cc1nc(-c3ccsc3)oc1C)CC2 gave CoaBC: 7.443%; Toxoplasma: -7.725%; Leishmania in macrophages: 48.16%; MtTrpRS: 6.056%; LiHisRS: 38.82%. Result for Cc1nccn1Cc1nnc(C2CCCN(c3cnccn3)C2)n1C (stereo not drawn) was CoaBC: -5.109%; Toxoplasma: -5.273%; Leishmania in macrophages: 28.65%; MtTrpRS: 3.09%; LiHisRS: 12.99%.

With O=C(C[C@@H]1COC[C@H]2CN(Cc3ccc(F)cc3)C[C@@H]12)N1CCCCO1 the screen gave CoaBC: 2.826%; MtTrpRS: 3.819%; LiHisRS: 13.59%. Result for Cc1csc2ncc(-c3ccnc(N4CCCN(C)CC4)n3)c(=O)n12 was CoaBC: 5.422%; Toxoplasma: 27.28%; Leishmania in macrophages: 15.12% and -2.199%; LiHisRS: 14.29%. For Cc1ccc(C(CNC(=O)Nc2cn[nH]c2)N2CCOCC2)o1 (stereo not drawn) the result was CoaBC: 2.089%; Toxoplasma: -3.799%; Leishmania in macrophages: 11.18%; MtTrpRS: -3.887%; LiHisRS: 11.5%. For Cc1cnn(CCNCC(=O)N2CCN(c3ccccn3)CC2)c1 the result was CoaBC: 0.1988%; Toxoplasma: -8.753%; Leishmania in macrophages: 8.876%; MtTrpRS: 2.413%; LiHisRS: 20%. Result for Cc1nc(C(C)(C)NC(=O)Nc2cccc(C#N)c2)no1 was CoaBC: -3.625%; Toxoplasma: 0.3284%; Leishmania in macrophages: 15.39%; MtTrpRS: 2.637%; LiHisRS: 23.08%. Result for CN(C)S(=O)(=O)NC(=O)CC(c1ccccc1)C(F)(F)F (stereo not drawn) was CoaBC: 10.8%; Toxoplasma: -1.248%; Leishmania in macrophages: -4.374%; MtTrpRS: -2.952%; LiHisRS: -12.82%. Result for CC1CN(CC(=O)Nc2ccncc2)CCN1c1nccs1 (stereo not drawn) was CoaBC: 13.82%; Toxoplasma: -5.672%; Leishmania in macrophages: 51.62%; MtTrpRS: -5.814%; LiHisRS: 8.929%.

Repeated from the top, 2 entries:

SMILES,CoaBC,Toxoplasma,Leishmania in macrophages,MtTrpRS,LiHisRS
CC(C)COC(=O)N1CCC2(CCNC2)C1.Cl (stereo not drawn),-,-26.6,-9.205,-,-
CCc1noc(C(C)N2CCN(CCc3ccncc3)CC2)n1 (stereo not drawn),0.638,2.935,-3.023,-7.67,5

The values are deposited in ChEMBL (CHEMBL3988442, “University of Dundee, Small-Polar-MMV Screening Library” (2021)).